Assay results from the supplement of paper PMC7666118.
The other results are listed elsewhere or left out.

Amino acid sequences for entries named in this document (tags omitted). A change or cut given only in a name is not applied to a line headed by its entry.
UniProt Q9BQA1, whole entry: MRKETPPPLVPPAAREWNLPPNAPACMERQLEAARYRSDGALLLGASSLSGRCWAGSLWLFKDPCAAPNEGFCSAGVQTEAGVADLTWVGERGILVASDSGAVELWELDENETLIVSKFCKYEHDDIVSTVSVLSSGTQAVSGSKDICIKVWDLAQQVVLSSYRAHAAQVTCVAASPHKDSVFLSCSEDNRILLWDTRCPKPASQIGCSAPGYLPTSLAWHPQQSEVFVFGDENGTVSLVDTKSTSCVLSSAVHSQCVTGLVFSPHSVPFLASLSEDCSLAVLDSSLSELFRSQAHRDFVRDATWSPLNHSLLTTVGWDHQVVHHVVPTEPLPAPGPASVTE
UniProt Q8NF64: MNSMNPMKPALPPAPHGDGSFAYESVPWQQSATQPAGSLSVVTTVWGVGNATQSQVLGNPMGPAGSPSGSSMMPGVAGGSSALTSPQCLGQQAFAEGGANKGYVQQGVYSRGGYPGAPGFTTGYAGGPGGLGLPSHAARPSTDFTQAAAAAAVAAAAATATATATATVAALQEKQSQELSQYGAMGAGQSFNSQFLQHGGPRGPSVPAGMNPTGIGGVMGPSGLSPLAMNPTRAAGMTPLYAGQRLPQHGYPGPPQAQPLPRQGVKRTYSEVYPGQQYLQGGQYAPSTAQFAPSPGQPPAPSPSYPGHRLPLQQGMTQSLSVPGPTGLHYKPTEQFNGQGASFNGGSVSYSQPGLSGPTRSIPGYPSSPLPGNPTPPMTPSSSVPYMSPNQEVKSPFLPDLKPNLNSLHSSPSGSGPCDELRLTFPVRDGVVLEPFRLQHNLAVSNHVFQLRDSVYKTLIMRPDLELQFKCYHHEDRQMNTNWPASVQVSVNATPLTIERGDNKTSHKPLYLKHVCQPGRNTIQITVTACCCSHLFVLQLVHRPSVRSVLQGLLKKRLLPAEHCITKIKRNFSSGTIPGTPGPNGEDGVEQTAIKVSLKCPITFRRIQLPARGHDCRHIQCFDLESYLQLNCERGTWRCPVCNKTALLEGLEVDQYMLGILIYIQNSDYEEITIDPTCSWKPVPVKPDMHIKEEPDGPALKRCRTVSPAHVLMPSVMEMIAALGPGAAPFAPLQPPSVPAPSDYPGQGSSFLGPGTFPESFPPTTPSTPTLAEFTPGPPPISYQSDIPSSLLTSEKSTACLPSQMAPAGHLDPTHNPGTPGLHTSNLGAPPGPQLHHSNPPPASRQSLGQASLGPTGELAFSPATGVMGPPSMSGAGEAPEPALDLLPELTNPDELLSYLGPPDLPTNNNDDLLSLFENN
UniProt P12956: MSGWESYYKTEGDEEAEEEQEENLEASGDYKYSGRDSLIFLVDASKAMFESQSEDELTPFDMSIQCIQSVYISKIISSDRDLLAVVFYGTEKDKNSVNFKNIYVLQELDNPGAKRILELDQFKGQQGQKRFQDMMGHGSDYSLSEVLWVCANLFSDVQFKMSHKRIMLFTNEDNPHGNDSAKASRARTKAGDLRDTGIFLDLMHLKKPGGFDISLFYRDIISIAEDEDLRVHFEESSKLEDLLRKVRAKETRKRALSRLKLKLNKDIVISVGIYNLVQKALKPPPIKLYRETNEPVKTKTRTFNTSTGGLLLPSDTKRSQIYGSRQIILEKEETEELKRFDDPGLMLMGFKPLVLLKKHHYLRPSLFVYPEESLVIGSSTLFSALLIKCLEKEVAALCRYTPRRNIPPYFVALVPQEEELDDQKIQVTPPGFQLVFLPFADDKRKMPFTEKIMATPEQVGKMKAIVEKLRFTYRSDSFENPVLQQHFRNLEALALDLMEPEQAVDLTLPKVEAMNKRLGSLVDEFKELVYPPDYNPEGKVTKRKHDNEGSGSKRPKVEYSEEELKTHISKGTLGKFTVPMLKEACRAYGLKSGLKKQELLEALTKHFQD
UniProt Q9Y2I8: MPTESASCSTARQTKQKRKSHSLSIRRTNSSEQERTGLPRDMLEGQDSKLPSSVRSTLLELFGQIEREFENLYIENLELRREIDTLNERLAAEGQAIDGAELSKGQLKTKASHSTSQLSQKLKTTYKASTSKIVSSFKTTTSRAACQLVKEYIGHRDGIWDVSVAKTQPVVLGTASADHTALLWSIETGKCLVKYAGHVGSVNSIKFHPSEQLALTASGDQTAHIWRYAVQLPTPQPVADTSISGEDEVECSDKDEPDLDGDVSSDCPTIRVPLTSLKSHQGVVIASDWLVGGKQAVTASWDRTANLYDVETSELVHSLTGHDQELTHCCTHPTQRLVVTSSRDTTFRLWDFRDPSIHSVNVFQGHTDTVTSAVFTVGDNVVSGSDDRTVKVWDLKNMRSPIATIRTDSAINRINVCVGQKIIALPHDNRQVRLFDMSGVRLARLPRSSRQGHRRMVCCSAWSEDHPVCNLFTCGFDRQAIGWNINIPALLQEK
UniProt Q9NW82: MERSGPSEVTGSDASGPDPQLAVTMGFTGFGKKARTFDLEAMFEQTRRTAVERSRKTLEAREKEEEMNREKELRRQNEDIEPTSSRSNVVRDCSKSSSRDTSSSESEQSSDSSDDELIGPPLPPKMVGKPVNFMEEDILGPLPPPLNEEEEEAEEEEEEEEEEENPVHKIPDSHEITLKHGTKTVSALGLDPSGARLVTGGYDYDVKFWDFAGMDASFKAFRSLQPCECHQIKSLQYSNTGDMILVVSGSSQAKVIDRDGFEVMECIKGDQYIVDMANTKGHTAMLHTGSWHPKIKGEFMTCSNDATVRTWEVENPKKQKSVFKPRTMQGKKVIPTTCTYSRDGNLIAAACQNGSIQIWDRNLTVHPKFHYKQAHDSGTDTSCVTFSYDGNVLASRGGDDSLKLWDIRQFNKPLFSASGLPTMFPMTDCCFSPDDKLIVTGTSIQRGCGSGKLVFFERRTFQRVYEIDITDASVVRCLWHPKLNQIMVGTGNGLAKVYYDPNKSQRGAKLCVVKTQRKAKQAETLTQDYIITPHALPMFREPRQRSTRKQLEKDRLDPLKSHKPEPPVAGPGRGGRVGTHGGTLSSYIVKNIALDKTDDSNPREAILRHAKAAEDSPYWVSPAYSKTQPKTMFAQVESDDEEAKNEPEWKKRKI
UniProt Q96JM3: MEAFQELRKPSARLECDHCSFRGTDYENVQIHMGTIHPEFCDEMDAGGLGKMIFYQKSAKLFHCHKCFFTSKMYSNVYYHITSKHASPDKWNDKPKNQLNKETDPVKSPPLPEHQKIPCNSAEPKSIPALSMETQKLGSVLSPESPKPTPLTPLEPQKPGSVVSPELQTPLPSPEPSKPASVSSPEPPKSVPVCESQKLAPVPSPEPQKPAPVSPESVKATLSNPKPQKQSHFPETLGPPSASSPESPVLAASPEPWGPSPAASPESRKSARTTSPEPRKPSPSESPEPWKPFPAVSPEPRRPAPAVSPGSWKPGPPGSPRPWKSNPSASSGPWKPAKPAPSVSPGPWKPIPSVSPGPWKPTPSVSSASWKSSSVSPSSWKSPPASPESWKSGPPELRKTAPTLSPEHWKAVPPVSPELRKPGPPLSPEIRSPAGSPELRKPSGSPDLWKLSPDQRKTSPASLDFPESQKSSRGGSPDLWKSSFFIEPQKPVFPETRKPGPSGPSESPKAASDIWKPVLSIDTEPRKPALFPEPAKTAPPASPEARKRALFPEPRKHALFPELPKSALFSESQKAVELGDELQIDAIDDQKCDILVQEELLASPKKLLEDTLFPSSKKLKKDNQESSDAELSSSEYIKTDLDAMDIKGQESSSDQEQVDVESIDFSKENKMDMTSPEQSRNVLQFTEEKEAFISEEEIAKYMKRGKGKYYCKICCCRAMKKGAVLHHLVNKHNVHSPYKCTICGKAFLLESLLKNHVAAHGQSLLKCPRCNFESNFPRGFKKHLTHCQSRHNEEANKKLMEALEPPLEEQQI
UniProt Q15942: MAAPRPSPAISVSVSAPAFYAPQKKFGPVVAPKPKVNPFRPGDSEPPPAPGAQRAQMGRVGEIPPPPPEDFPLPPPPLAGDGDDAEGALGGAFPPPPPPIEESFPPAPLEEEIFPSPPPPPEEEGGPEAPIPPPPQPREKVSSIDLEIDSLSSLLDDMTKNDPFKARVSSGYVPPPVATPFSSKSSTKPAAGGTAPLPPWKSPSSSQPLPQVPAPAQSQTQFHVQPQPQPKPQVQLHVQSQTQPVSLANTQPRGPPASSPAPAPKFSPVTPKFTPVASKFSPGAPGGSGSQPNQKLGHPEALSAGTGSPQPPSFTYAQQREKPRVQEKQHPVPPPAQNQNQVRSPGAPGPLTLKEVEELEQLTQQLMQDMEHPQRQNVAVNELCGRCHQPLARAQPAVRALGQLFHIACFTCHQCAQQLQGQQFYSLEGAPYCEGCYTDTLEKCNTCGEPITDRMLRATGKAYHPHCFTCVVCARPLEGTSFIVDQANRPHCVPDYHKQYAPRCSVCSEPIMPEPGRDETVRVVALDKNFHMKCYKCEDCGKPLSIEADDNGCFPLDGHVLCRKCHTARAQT
UniProt Q6N043: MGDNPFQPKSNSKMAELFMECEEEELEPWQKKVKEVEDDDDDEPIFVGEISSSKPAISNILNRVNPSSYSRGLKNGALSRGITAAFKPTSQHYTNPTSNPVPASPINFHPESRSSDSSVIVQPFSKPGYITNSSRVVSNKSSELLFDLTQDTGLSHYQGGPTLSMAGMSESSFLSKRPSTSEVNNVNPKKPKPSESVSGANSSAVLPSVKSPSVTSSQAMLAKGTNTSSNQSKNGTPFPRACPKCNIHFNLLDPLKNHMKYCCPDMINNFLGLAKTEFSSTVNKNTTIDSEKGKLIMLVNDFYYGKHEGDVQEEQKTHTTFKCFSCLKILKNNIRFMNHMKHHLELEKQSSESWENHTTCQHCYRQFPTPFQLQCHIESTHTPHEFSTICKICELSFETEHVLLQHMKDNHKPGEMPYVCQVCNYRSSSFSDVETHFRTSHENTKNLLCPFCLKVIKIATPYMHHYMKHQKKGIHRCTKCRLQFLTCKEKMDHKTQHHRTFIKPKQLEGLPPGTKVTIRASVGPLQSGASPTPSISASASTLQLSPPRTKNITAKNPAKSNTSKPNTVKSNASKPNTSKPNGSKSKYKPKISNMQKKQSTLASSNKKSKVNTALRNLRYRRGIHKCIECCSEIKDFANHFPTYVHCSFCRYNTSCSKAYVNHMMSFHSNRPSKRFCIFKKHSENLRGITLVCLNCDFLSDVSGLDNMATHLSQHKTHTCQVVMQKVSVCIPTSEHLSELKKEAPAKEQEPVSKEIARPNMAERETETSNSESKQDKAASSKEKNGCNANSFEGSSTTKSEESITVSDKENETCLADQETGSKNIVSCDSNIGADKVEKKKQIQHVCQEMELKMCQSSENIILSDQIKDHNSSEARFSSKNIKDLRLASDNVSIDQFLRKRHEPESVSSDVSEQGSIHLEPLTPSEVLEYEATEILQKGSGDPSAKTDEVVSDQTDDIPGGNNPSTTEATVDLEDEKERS
UniProt Q6ZSR9: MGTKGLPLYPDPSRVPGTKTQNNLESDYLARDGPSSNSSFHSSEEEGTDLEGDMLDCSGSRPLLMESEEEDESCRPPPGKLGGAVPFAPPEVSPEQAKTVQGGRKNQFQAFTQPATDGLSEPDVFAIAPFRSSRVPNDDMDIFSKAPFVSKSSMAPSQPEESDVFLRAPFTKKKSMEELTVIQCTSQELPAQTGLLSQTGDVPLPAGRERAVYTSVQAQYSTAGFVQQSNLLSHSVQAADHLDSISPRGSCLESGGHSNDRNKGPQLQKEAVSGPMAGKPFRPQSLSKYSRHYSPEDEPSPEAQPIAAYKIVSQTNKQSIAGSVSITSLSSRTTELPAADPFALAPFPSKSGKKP
UniProt O43167: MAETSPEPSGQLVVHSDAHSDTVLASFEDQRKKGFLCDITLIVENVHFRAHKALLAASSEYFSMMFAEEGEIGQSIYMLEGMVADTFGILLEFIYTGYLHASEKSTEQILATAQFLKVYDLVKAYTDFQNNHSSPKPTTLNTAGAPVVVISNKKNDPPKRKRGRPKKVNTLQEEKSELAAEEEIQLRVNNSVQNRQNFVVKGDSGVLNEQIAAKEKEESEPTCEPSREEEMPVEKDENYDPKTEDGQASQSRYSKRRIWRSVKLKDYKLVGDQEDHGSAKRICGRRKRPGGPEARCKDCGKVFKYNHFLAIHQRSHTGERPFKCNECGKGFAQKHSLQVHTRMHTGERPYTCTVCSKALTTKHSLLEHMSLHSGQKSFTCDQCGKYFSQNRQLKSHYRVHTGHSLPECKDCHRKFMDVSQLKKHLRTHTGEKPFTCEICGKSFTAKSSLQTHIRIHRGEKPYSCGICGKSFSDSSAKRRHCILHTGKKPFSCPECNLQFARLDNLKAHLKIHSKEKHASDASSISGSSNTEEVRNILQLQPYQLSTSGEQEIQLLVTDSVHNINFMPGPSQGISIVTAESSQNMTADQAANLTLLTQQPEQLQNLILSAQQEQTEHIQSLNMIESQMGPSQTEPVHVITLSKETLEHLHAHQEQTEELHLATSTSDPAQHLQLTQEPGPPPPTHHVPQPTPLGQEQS

What follows are targets tested with COc1ccc(Cn2ccc3cc(C)c(C(=O)NO)cc32)cc1 (assay: dose-dependent thermal stabilisation call (2D-TPP, DLPTP, 10% FDR) (binary (1 = stabilised)); higher = stabilised by the compound). Conditions: system: HL-60 intact cells; concentration range 0.04-10 µM.
Procedure: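 2D thermal proteome profiling in intact HL-60 cells treated with BRD-3811 (0, 0.04, 0.29, 2, 10 uM) for 90 min at 37 C, then heated 3 min at one of 12 temperatures (42-63.9 C). Soluble protein was quantified by TMT10 MS. The value is the DLPTP call of the paper: dose-dependent thermal stabilisation over all temperatures at 10% FDR (F-test of a dose-response against a flat model); one experiment, one call per tested protein.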

Row | Target | dose-dependent thermal stabilisation call
1 | XPO7 (UniProt Q9UIA9) | inactive: 0
2 | YES1 (UniProt P07947) | inactive: 0
3 | WDR77 (UniProt Q9BQA1) | inactive: 0
4 | WDR26 (UniProt Q9H7D7) | inactive: 0
5 | YIPF4 (UniProt Q9BSR8) | inactive: 0
6 | WIBG (UniProt Q9BRP8) | inactive: 0
7 | ZMIZ2 (UniProt Q8NF64) | inactive: 0
8 | ZW10 (UniProt O43264) | inactive: 0
9 | ZBTB33 (UniProt Q86T24) | inactive: 0
10 | WDR46 (UniProt O15213) | inactive: 0
11 | WDR43 (UniProt Q15061) | inactive: 0
12 | ZNF667 (UniProt Q5HYK9) | inactive: 0
13 | mTOR (UniProt P42345) | inactive: 0
14 | YTHDC2 (UniProt Q9H6S0) | inactive: 0
15 | ZC3H13 (UniProt Q5T200) | inactive: 0
16 | ZFYVE19 (UniProt Q96K21) | inactive: 0
17 | WIPF2 (UniProt Q8TF74) | inactive: 0
18 | XRCC6 (UniProt P12956) | inactive: 0
19 | WDR37 (UniProt Q9Y2I8) | inactive: 0
20 | WDR4 (UniProt P57081) | inactive: 0

Individual results from the results shown.
WIBG (UniProt Q9BRP8) – dose-dependent thermal stabilisation call: inactive: 0
WDR26 (UniProt Q9H7D7) – dose-dependent thermal stabilisation call: inactive: 0

(cont.)

Row | Target | dose-dependent thermal stabilisation call
21 | ZNF346 (UniProt Q9UL40) | inactive: 0
22 | WDR70 (UniProt Q9NW82) | inactive: 0
23 | WDSUB1 (UniProt Q8N9V3) | inactive: 0
24 | ZNF146 (UniProt Q15072) | inactive: 0
25 | ZNF828 (UniProt Q96JM3) | inactive: 0
26 | ZYX (UniProt Q15942) | inactive: 0
27 | ZNF280D (UniProt Q6N043) | inactive: 0
28 | YJ005_HUMAN (UniProt Q6ZSR9) | inactive: 0
29 | YIPF1 (UniProt Q9Y548) | inactive: 0
30 | ZMAT2 (UniProt Q96NC0) | inactive: 0
31 | ZBTB24 (UniProt O43167) | inactive: 0
32 | ZNF277 (UniProt Q9NRM2) | inactive: 0
33 | ZC3H11A (UniProt O75152) | inactive: 0
34 | ZNF187 (UniProt Q16670) | inactive: 0
35 | WDR74 (UniProt Q6RFH5) | inactive: 0
36 | WDR12 (UniProt Q9GZL7) | inactive: 0
37 | ZNF787 (UniProt Q6DD87) | inactive: 0
38 | WDR32 (UniProt Q5QP82) | inactive: 0
39 | XRCC6BP1 (UniProt Q9Y6H3) | inactive: 0
40 | ZDHHC13 (UniProt Q8IUH4) | inactive: 0
